# Assay results: PubChem BioAssay AID624297 (National Center for Advancing Translational Sciences (NCATS), 2012)
# Hit rate of the full screen: of about 340,000 compounds, about 6,200 (1.8%) were called active. The shares of active, inactive and inconclusive entries below differ from those in the screen. Calls come from the whole dose curve; as a rule, active = well fitted activation curve with a large enough effect; inconclusive = small, poorly fitted or top-dose-only effect; inactive = no such curve, though single readings can be large or run the other way. Potencies of inconclusive entries are doubtful fits and often do not repeat.
# Test: A quantitative high throughput screen for small molecules that induce DNA re-replication in SW480 colon adenocarcinoma cells. Note: nearly all actives have a fitted effect of over 55% in size.
# Conditions: Hoechst DNA content imaging, 48 h; series mostly up to 46.1 µM
# Outline: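 Per well, 250 cells were exposed to pinned compound for 48 hr. Nuclear DNA was visualised with Hoechst (40 min, 37 C) and total object intensity recorded by fluorescence scanning.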
# Potency is the fitted concentration of half-maximal effect.
row,SMILES,Potency
1,CCOc1ccc2c(c1)C(C)=CC(C)(C)N2S(=O)(=O)c1ccc(NC(C)=O)cc1,"inconclusive: 1.16 µM [activator, partial curve, poor fit]"
2,CCOc1ccc(C(=O)CC(=O)C(=O)NCCc2ccc(OC)c(OC)c2)cc1,"inconclusive: 32.6 µM [activator, partial curve, poor fit]"
3,CCOC(=O)c1c(Cl)c(C)nn1-c1nc(OC)cc(OC)n1,inactive
4,CCCC(=O)O[C@]1(C(=O)CO)CCC2[C@@H]3CCC4=CC(=O)CC[C@]4(C)C3C(O)C[C@]21C (some centres undefined),inactive
5,CC(c1ccccc1)N1CC(C(=O)N2CCCC(C(N)=O)C2)CC1=O (centres undefined),inactive
6,CC(=Nc1ccccc1)C1=C(O)C(Cc2ccc(O)cc2)NC1=O (centres undefined),active: 0.13 µM
7,CC1CCc2c(C(=O)Nc3nccs3)csc2C1 (centres undefined),"inconclusive: 6.51 µM [activator, single point]"
8,O=C(N/N=C/c1ccoc1)c1cccc([N+](=O)[O-])c1,inactive
9,CCOC(=O)N1CCC(NC(=O)c2ccc3c(Cl)c4c(nc3c2)CCCC4)CC1,"inconclusive: 16.4 µM [activator, single point]"
10,Cc1c(C(=O)NCCCN2CCOCC2)oc2ccc(S(=O)(=O)N3CCOCC3)cc12,"inconclusive: 2.59 µM [activator, single point]"
11,CCC(C)(C)NC(=O)CN(C(=O)CCC(=O)Nc1nccs1)c1cccc(C)c1C,"inconclusive: 0.0065 µM [activator, full curve, poor fit]"
12,O=C1N=C(N2C=CC(=C3C=CNC=C3)C=C2)/C(=C/N=NC(=O)c2ccccc2O)S1,"inconclusive: 16.4 µM [activator, single point]"
13,CNC(=O)CCSSCCC(=O)NC,"inconclusive: 5.8 µM [activator, partial curve, poor fit]"
14,CCCc1nnc(NC(=O)C2CC(=O)N(C3CCCC3)C2)s1 (centres undefined),inactive
15,O=c1cc(CSc2nnc(C3CC3)n2Cc2ccccc2)nc2sccn12,"inconclusive: 0.0058 µM [activator, full curve, poor fit]"
16,Cc1ccc2[nH]c(=O)c(CN(Cc3ccco3)S(=O)(=O)c3c(C)ccc4nsnc34)cc2c1,"inconclusive: 29.1 µM [activator, single point]"
17,CC(C)(C)c1ccc(CN2N=C(/C=C/c3ccccc3)CCC2=O)cc1,"inconclusive: 20.6 µM [activator, single point]"
18,Cc1ccc(-c2nnnn2-c2ccc(C)cc2)cc1,inactive
19,CC1=CC(C)(C)Nc2ccc(OC(=O)CN3C(=O)c4ccccc4C3=O)cc21,active: 18.4 µM

# 2 compounds drawn at random from the list so far, as already listed:
row,SMILES,Potency
7,CC1CCc2c(C(=O)Nc3nccs3)csc2C1 (centres undefined),"inconclusive: 6.51 µM [activator, single point]"
14,CCCc1nnc(NC(=O)C2CC(=O)N(C3CCCC3)C2)s1 (centres undefined),inactive
